These results are taken from US20060051526A1, “Process for producing cellulose acylate film” (Fuji Photo Film Co., Ltd., priority 2002, published 2006).

Series [1] in a line: Weeping (exudation of retardation control agent on the surface) of the cast cellulose acetate film. The following applies: for Weeping (in words): dope with initial solvent composition 92/8. The procedure:
(§1) The dope thus obtained was cast on a film formation band and dried at 80° C. for 7 minutes. The amount of residual solvent after drying was 35 wt % regardless of the type of retardation control agent. The cellulose acetate film was peeled off from the band, dried at 100° C. for 10 minutes and dried at 140° C. for 20 minutes to give a cellulose acetate film. The effective wind speed of drying air was 5 m/sec through out the drying process until peeling off.
(§2) The dope thus obtained was cast on a film formation band and dried at 80° C. for 7 minutes. The amount of residual solvent after drying was 35 wt % regardless of the type of retardation control agent. The cellulose acetate film was peeled off from the band, and dried at 100° C. for 10 minutes and dried at 140° C. for 20 minutes to give a cellulose acetate film. The effective wind speed of drying air was 5 m/sec through out the drying process until peeling off.
(§3) The dopes thus obtained were cast on a film formation band and dried at 80° C. for 7 minutes. The amount of residual solvent after drying was 35 wt % regardless of the type of retardation control agent. The cellulose acetate films were peeled off from the band, dried at 100° C. for 10 minutes, and dried at 140° C. for 20 minutes to give cellulose acetate films.

Experiment in series [2]: as above
Also on record: key: Bad: Weeping; Good: No weeping. The procedure: as §1, §2, §3

Experiment in series [3]: as above
Also on record: key: Bad: Weeping; Fair: Hardly weeping; Good: No weeping. The following applies: Table 10; dope Table 6, dichloromethane/methanol 87/13, 74/26 during drying. How it is done: as §1, §2, §3

The mark [4] stands for this setting: Table 10, dope Table 8, dichloromethane/methanol 92/8, 91/9 during drying.
Where [5] appears, read: Table 15, dope Table 12, 87/13, drying blow rate 5 m/min.
Where [6] appears, read: Table 15, dope Table 13, 92/8, drying blow rate 5 m/min.
Setting [7] is: Table 15, dope Table 13, 92/8, drying blow rate 7 m/min.
Where [8] appears, read: Table 15, dope Table 14, 74/26, drying blow rate 5 m/min.
[9] abbreviates: film from dope of Table 6, initial CH2Cl2/CH3OH 87/13, 74/26 during drying.
Setting [10] is: film from dope of Table 8, initial CH2Cl2/CH3OH 92/8, 91/9 during drying.

For the compound `COc1ccc(Nc2nc(Nc3cccc(C)c3)nc(Nc3cccc(C)c3)n2)cc1` [Example Compound I-(2)], the “Weeping (in words)” value in series [1] is “did not weep”. Also, the Weeping entry is on record as “Good” in series [2] (Table 10, dope Table 6, dichloromethane/methanol 87/13, 74/26 during drying); “Good” in series [2] (setting [4]); “Good” in series [2] (setting [5]); “Good” in series [2] (setting [6]); “Good” in series [2] (setting [7]); “Bad” in series [2] (setting [8]). The Weeping result in series [2] (setting [9]) and in series [2] (setting [10]) was “Good” each time.

`Cc1cccc(Nc2nc(Nc3cccc(C)c3)nc(Nc3cccc(C)c3)n2)c1` [Example Compound I-(51)]: the “Weeping on the film surface (in words)” value in series [1] (dope with initial composition ratio 87/13) is listed as “there was weeping on the film surface”. Besides, the “Weeping (in words)” value in series [1] is “did not weep”. The Weeping result in series [2] (setting [4]) was “Good”; in series [2] (setting [5]), “Good”; in series [2] (setting [6]), “Good”; in series [2] (setting [7]), “Good”; in series [2] (setting [8]), “Bad”; in series [2] (setting [9]), “Bad”. The Weeping result is given as “Good” in series [2] (setting [10]) and “Fair” in series [3].
